Measurements as given in publication PMC3210732, “Purification and characterization of novel fibrinolytic proteases as potential antithrombotic agents from earthworm Perionyx excavatus” (AMB Express, 2011).
Non-standard residues stand in square brackets, D forms with d. Residues, ends and D or L forms follow the SMILES beside them. *: point of attachment. Sta = CC(C)C[C@H](N)[C@@H](O)CC(=O)O; Isovaleryl = CC(C)CC(=O)*

System: T1, FIII-3
T1 construct: gene earthworm fibrinolytic protease; native, purified from earthworm autolysate; 31 kDa active protein together with 33 kDa protein (supposed zymogen)
Assay: caseinolytic inhibition assay
Assay type: biochemical, Perionyx excavatus
Conditions: casein substrate, 50 mM sodium phosphate pH 7.5, 37 °C, 10 min, residual activity, control 100%
Source text: caseinolytic inhibition assay on FIII-3

Row | Structure (SMILES) | Relative activity (%) / FIII-3 (100 µM) | Relative activity (%) / FIII-3 (1000 µM)
1 | Cc1ccc(S(=O)(=O)N[C@@H](Cc2ccccc2)C(=O)CCl)cc1 [TPCK] | 76% | –
2 | CC(C)CC(=O)N[C@H](C(=O)N[C@H](C(=O)N[C@@H](CC(C)C)[C@@H](O)CC(=O)N[C@@H](C)C(=O)N[C@@H](CC(C)C)[C@@H](O)CC(=O)O)C(C)C)C(C)C [pepstatin] (Isovaleryl-VV[Sta]A[Sta]-OH) | – | 83%
